Test: Transmission characteristics of bottom gate-bottom contact p-type organic thin film transistor (drop casting)
Conditions: drop casting from 0.20% by weight toluene solution, materials and methods of Example 25
Experimental: The evaluation of the transmission characteristics of the aromatic compounds was performed using a semiconductor parameter analyzer.
• Instrument; Manufactured by Keithley Instruments, Inc., model; 4200A-SCS • Drain voltage; −20 V • Gate voltage; 10 V to −20 V.
Using the resulting solution for forming an organic semiconductor layer, a bottom gate-bottom contact p-type organic thin film transistor was fabricated.

Compound | thin film formation for transistor fabrication
CCCCCCCCc1cc2ccc3cc4c(ccc5cc(CCCCCCCC)sc54)cc3c2s1 [2,8-dioctylanthra[1,2-b:5,6-b′]dithiophene, reference compound] | No thin film

Same assay, conditions: drop-cast film from 0.20% by weight toluene solution; drain voltage −20 V, gate voltage 10 V to −20 V

Compound | hole carrier mobility [cm^2/V·sec]
c1cc2cc(CCC3CCCC3)sc2c2cc3ccc4cc(CCC5CCCC5)sc4c3cc12 [Compound 10, 2,8-Di(2-cyclopentylethyl)anthra[1,2-b:5,6-b′]dithiophene] | 3.33
c1cc2cc(CCC3CCCCC3)sc2c2cc3ccc4cc(CCC5CCCC5)sc4c3cc12 [Compound 14, 2-(2-Cyclohexylethyl)-8-(2-cyclopentylethyl)anthra[1,2-b:5,6-b′]dithiophene] | 0.20
CC(C)Cc1cc2ccc3cc4c(ccc5cc(CCC6CCCC6)sc54)cc3c2s1 [Compound 12, 2-(2-Cyclopentylethyl)-8-isobutylanthra[1,2-b:5,6-b′]dithiophene] | 0.22
CCCCCCc1cc2ccc3cc4c(ccc5cc(CCCC6CCCCC6)sc54)cc3c2s1 [Compound 18, 2-(3-Cyclohexylpropyl)-8-hexylanthra[1,2-b:5,6-b′]dithiophene] | 0.48
CCCCCCc1cc2ccc3cc4c(ccc5cc(CCCC6CCCC6)sc54)cc3c2s1 [Compound 31, 2-(3-Cyclopentylpropyl)-8-hexylanthra[1,2-b:5,6-b′]dithiophene] | 0.49
c1cc2cc(CCC3CCCCC3)sc2c2cc3ccc4cc(CCC5CCCCC5)sc4c3cc12 [Compound 2, 2,8-Di(2-cyclohexylethyl)anthra[1,2-b:5,6-b′]dithiophene] | 1.46
CCCCCCc1cc2ccc3cc4c(ccc5cc(CCC6CCCC6)sc54)cc3c2s1 [Compound 13, 2-(2-Cyclopentylethyl)-8-hexylanthra[1,2-b:5,6-b′]dithiophene] | 1.17
CCCCCCc1cc2ccc3cc4c(ccc5cc(CCC6CCCCC6)sc54)cc3c2s1 [Compound 8, 2-(2-Cyclohexylethyl)-8-hexylanthra[1,2-b:5,6-b′]dithiophene] | 1.67
CCCCCc1cc2ccc3cc4c(ccc5cc(CCCC6CCCCC6)sc54)cc3c2s1 [Compound 25, 2-(3-Cyclohexylpropyl)-8-pentylanthra[1,2-b:5,6-b′]dithiophene] | 1.18
CCCCCCCCc1ccc(CCc2cc3ccc4cc5c(ccc6cc(CCC7CCCCC7)sc65)cc4c3s2)cc1 [Compound 40, 2-(2-Cyclohexylethyl)-8-(4-octylphenylethyl)anthra[1,2-b:5,6-b′]dithiophene] | 0.66
c1cc2cc(CCC3CCCCC3)sc2c2c1-c1c-2ccc2cc(CCC3CCCCC3)sc12 [Compound 20, 2,7-Bis(2-cyclohexylethyl)biphenyleno[1,2-b:5,6-b′]dithiophene] | 0.22

Source: patent publication US20260231590A1, “AROMATIC COMPOUND, ORGANIC SEMICONDUCTOR LAYER AND ORGANIC THIN FILM TRANSISTOR” (TOSOH CORPORATION, priority 2023, published 2026)
